Measured data: PubChem BioAssay AID1053208 (Peter MacCallum Cancer Centre, 2014)
This is a random part of about 17,000 deposited reagents. Of all reagents, 788 (4.7%) got an active call. 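Calls rest on z-score classes alone; an extra cut-off of viability at most 70% of control was not applied to them.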 The numbers tell different reagents against one gene apart. Not all columns of the deposit are shown. Reagent sequences are not shown.

Test: 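Genes whose silencing cuts survival of bone tumour cells only with doxorubicin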 (primary screen)
Cells: mouse osteosarcoma cells, early-passage culture from an engineered mouse model of fibroblastic bone tumour
Reagent: siRNA pool against mouse genes, 40 nM
Time to read-out: about 120 h (48 h before drug, then 72 h with drug)
Treatment: doxorubicin 100 nM for 72 h, roughly 30-40% inhibitory dose
Measurement: 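Luminescent ATP signal taken as viability with or without 100 nM doxorubicin for 72 h; mean of two wells set against non-targeting siRNA and turned into robust z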
Scale: viability z-score with doxorubicin: higher = more viable cells under doxorubicin; viability z-score without drug: higher = more viable cells with knock-down alone
Rule for the call: 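Called active if knock-down leaves viability unchanged without drug (z within -2 to 2) but lowers it with doxorubicin (z at or under -2)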

The opening 2 entries, to show the layout:
Gene | pool no. | combined z-score class | viability z-score with doxorubicin | viability z-score without drug | outcome
Maea | 1 | no change with or without drug | -0.11 | 0.17 | inactive
Klf6 | 1 | no change with or without drug | 0.67 | 0.34 | inactive

Results, repeating the preview:
Gene | pool no. | combined z-score class | viability z-score with doxorubicin | viability z-score without drug | outcome
Maea | 1 | no change with or without drug | -0.11 | 0.17 | inactive
Klf6 | 1 | no change with or without drug | 0.67 | 0.34 | inactive
Cul5 | 1 | no change with or without drug | 0.9 | -0.17 | inactive
Pcdhb2 | 1 | no change with or without drug | 1.12 | 0.67 | inactive
Gcat | 1 | no change with or without drug | -0.11 | 0.84 | inactive
Anapc11 | 1 | no change with or without drug | -1.24 | -0.84 | inactive
Pgap2 | 1 | no change with or without drug | -1.46 | -0.17 | inactive
Dnm3 | 1 | no change with or without drug | 0.45 | -0.84 | inactive
Hspa12b | 1 | no change with or without drug | 0 | 0.17 | inactive
Keg1 | 1 | no change with or without drug | -0.67 | -0.17 | inactive
Itih1 | 1 | low cell count with doxorubicin only | -2.92 | 1.18 | active
Muc4 | 1 | high cell count without drug only | 0.67 | 2.19 | inactive
Muc4 | 2 | no change with or without drug | -1.8 | -1.18 | inactive
Or10h28 | 1 | no change with or without drug | -0.45 | -0.51 | inactive
Clasp2 | 1 | no change with or without drug | 0.9 | -0.17 | inactive
Atmin | 1 | no change with or without drug | 0.22 | -0.17 | inactive
Or1o1 | 1 | no change with or without drug | 0.9 | -0.17 | inactive
Naip2 | 1 | no change with or without drug | -0.22 | -0.51 | inactive
Gstt4 | 1 | no change with or without drug | -1.24 | -1.52 | inactive
Qtrt1 | 1 | no change with or without drug | 0.45 | -0.17 | inactive
